The list shows a part of the results. Small differences around the control level are noise.
compound: CN[C@@H]1C[C@H]2O[C@@](C)([C@@H]1OC)n1c3ccccc3c3c4c(c5c6ccccc6n2c5c31)C(=O)NC4 [staurosporine]; assay: log2 fold change of tryptic peptide abundance, ligand vs vehicle (limited proteolysis) (log2 ratio); higher = more trypsin-susceptible (destabilized); details: ligand concentration: 20 uM; sample: K562 cleared lysate; digestion: 4 min, 22 C (HT-PELSA RT4min, Orbitrap Astral)

Chains of the proteins cited; added tags and fusions are not shown. Lines headed by an entry give the natural chain unless they say otherwise; changes in a name come on top.
UniProt Q92540: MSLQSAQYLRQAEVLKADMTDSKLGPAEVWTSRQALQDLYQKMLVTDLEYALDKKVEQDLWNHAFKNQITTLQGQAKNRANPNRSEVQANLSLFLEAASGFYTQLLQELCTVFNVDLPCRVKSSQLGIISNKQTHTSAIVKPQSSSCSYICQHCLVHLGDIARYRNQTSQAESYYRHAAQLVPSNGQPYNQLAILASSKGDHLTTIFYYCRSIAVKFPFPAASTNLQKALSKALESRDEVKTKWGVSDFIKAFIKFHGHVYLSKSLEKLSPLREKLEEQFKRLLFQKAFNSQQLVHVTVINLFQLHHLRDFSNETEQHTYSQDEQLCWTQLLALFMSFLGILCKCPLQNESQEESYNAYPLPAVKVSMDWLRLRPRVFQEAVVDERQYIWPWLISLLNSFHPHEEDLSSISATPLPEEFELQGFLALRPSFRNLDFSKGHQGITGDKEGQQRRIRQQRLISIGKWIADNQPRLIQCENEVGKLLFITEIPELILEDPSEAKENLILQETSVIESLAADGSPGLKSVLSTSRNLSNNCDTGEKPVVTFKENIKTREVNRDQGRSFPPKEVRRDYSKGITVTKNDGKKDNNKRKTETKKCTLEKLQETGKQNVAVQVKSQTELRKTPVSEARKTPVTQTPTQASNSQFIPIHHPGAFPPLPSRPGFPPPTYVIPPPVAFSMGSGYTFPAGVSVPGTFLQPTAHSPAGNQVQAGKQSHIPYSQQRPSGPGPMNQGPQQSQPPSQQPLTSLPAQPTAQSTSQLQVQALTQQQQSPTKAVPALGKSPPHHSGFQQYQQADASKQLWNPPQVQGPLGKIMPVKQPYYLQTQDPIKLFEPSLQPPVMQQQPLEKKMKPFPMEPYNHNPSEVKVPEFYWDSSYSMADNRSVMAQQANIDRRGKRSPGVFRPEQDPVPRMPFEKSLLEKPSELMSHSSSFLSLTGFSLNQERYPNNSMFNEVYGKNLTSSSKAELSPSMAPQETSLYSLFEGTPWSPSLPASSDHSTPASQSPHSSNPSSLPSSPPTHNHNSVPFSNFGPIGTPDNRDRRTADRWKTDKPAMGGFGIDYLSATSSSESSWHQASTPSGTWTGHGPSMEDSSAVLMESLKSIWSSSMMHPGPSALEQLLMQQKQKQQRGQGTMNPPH
UniProt Q92738: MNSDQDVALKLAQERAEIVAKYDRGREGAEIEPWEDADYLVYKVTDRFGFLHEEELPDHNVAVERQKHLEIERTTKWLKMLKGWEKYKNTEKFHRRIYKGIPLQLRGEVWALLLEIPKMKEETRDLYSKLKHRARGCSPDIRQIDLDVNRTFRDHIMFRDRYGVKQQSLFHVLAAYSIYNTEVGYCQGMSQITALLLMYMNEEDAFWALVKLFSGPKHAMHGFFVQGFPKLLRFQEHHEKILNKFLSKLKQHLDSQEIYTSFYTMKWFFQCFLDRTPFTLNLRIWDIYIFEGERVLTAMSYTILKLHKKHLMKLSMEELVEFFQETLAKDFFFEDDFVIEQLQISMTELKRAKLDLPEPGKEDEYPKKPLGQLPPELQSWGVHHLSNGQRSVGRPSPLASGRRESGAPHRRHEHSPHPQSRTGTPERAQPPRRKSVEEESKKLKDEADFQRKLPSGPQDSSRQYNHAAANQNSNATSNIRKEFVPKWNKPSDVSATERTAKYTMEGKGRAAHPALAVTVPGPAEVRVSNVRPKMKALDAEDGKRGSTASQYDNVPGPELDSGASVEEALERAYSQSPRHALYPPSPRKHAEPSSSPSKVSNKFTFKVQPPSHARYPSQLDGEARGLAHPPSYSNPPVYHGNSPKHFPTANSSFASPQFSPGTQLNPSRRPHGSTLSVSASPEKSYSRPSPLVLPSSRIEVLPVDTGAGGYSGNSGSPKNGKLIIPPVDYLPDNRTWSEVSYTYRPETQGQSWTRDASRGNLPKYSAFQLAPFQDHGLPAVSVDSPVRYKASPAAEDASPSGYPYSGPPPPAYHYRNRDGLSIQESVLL
UniProt Q8WVE0: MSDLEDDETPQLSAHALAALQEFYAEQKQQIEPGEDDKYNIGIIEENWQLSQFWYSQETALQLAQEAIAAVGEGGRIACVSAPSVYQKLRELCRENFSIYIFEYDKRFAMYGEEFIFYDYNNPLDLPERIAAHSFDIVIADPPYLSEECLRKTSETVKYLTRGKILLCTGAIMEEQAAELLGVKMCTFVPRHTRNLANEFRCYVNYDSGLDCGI
UniProt Q8TDF6: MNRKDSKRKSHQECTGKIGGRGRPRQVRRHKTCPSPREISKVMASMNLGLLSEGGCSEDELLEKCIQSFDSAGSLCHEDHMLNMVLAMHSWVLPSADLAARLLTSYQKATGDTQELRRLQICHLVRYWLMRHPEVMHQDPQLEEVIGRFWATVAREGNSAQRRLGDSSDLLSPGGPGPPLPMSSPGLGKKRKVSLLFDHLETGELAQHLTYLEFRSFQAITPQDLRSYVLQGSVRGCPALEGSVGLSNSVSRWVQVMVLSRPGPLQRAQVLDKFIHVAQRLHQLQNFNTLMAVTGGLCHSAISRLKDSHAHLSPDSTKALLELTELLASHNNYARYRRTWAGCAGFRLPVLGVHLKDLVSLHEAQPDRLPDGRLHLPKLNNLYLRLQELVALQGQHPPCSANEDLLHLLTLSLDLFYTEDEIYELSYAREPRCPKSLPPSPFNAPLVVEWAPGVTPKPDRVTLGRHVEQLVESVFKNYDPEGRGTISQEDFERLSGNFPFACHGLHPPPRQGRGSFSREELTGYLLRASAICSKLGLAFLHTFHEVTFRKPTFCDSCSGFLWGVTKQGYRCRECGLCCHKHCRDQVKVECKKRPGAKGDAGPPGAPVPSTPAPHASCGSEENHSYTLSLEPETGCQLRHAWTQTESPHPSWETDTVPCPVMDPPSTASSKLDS
UniProt Q92576, whole entry: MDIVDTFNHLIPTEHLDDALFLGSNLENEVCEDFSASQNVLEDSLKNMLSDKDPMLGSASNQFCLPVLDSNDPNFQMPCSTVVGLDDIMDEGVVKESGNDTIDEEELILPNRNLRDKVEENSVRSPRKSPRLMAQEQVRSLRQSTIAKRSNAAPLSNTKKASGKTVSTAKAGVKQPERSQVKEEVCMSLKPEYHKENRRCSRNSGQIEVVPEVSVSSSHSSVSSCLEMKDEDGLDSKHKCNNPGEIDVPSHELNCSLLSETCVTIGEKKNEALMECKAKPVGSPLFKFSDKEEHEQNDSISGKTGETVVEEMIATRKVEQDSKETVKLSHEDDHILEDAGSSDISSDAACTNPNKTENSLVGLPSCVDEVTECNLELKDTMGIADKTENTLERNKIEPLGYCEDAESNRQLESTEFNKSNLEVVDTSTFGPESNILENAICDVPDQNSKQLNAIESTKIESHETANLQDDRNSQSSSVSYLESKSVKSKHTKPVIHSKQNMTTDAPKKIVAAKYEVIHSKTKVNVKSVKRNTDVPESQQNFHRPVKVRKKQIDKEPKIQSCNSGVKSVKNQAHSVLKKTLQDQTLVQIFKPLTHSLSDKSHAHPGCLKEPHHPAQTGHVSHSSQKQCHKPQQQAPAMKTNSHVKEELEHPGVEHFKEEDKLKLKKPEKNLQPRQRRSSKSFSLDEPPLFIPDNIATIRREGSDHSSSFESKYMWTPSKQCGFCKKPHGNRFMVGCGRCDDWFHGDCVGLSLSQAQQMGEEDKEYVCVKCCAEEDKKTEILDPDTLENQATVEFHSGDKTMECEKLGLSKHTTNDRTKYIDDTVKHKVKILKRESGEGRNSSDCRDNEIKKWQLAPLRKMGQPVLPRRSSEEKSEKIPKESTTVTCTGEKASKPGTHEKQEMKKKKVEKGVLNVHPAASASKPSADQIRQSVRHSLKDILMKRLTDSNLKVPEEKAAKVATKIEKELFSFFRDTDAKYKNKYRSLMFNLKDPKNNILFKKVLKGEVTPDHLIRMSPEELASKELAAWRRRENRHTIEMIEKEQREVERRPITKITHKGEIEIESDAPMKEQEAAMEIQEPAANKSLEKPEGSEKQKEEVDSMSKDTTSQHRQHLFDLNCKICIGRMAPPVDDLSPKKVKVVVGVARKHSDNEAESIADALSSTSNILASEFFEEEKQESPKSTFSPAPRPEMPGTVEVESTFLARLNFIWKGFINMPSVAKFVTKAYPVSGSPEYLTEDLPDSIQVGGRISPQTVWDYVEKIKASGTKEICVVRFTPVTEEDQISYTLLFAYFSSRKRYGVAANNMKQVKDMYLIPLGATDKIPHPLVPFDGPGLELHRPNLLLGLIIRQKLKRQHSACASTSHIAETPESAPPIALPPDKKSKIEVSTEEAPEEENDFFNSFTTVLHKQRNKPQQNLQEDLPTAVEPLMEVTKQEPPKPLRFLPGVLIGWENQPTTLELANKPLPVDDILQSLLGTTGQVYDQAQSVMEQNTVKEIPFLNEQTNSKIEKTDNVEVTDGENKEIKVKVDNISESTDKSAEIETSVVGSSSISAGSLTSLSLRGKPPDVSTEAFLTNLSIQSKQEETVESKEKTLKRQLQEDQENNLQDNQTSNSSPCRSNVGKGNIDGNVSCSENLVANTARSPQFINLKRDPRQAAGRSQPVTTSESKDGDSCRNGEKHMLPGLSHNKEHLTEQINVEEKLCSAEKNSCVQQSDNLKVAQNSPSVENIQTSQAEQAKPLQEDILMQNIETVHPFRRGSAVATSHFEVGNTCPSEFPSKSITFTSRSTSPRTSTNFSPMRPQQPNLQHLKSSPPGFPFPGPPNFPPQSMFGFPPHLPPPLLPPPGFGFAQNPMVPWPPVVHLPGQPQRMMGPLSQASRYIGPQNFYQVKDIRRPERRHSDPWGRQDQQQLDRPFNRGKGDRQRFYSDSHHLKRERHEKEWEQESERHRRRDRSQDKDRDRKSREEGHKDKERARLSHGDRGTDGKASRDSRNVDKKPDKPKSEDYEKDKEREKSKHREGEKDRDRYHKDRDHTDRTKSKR
UniProt Q8WUE5: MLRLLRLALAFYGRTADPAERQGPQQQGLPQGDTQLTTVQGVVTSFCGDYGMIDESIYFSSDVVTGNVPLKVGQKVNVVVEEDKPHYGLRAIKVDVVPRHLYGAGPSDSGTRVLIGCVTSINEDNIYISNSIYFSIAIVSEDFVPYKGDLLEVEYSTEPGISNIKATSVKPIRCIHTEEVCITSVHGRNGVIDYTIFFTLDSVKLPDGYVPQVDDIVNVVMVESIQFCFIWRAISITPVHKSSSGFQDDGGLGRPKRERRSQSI
UniProt Q92539: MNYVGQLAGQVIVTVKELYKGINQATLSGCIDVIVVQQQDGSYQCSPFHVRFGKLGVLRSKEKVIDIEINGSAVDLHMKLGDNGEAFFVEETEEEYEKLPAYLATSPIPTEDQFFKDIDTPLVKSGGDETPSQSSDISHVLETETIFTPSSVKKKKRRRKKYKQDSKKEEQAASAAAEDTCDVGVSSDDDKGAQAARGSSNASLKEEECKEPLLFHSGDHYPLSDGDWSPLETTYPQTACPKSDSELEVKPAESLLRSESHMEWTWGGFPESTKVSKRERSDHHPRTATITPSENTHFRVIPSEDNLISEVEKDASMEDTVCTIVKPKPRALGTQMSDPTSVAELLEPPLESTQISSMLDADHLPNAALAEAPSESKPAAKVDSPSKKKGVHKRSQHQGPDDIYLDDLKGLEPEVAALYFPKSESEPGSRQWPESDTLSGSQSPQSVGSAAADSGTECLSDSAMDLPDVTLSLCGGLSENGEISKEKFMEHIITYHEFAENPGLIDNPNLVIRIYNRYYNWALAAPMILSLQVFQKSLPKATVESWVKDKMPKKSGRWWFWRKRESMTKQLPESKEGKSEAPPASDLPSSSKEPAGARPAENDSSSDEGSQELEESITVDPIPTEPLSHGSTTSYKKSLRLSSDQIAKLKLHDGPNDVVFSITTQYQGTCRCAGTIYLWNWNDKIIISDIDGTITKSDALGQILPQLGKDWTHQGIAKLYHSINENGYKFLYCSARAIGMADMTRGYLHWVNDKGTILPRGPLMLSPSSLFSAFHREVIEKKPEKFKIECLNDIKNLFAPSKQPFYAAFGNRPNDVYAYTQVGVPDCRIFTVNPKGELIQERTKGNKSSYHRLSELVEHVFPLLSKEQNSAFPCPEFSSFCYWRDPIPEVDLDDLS

Target	log2 fold change
SMG7 (peptide sequence: GQGTMNPPH, peptide start residue: 1129) (UniProt Q92540)	-0.834
USP6NL (peptide sequence: KLPSGPQDSSR, peptide start residue: 452) (UniProt Q92738)	0.403
UniProt Q8WVE0 (peptide sequence: IACVSAPSVYQK, peptide start residue: 77)	0.0675
UniProt Q8TDF6 (peptide sequence: LKDSHAHLSPDSTK, peptide start residue: 305)	0.165
PHF3 (peptide sequence: MAPPVDDLSPK, peptide start residue: 1125) (UniProt Q92576)	0.186
CT55 (peptide sequence: HLYGAGPSDSGTR, peptide start residue: 100) (UniProt Q8WUE5)	-0.262
LPIN2 (peptide sequence: SESHMEWTWGGFPESTK, peptide start residue: 258) (UniProt Q92539)	-0.524
